# pKi: −log10 of the molar value.
# The chains behind the UniProt entries cited, without tags or fusion partners.
# UniProt P20309, whole entry: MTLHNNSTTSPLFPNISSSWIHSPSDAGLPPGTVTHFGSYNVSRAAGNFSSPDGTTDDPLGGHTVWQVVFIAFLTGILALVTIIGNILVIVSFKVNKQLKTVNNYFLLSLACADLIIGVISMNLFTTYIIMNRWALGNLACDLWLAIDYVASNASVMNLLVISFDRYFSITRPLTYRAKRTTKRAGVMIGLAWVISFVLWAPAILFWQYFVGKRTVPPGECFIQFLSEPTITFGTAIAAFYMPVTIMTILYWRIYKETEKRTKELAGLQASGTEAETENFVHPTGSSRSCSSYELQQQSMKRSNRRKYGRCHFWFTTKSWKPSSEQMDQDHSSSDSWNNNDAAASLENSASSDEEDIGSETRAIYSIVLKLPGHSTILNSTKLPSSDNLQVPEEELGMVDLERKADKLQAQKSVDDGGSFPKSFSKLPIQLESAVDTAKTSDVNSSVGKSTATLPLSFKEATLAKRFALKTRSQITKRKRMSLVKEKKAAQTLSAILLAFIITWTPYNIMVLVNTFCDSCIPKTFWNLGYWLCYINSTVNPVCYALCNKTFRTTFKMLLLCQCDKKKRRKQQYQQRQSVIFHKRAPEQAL
# Target: Muscarinic acetylcholine receptor M3 (Homo sapiens, UniProt P20309)
# Test: Displacement of [3H]NMS from human M3 muscarinic receptor expressed in CHO-K1 cells
# Format: cell-based
smiles,measurement,value
CN1[C@@H]2C[C@@H](OC(=O)[C@H](CO)c3ccccc3)C[C@H]1[C@@H]1O[C@@H]12 [SCOPOLAMINE],pKi,8.19

# From ChEMBL document CHEMBL2311283, “Structural modifications to tetrahydropyridine-3-carboxylate esters en route to the discovery of M5-preferring muscarinic receptor orthosteric antagonists” (J Med Chem, 2013)
